From patent US12036271B2, “Peptides and combination of peptides as targets or active ingredients for use in immunotherapy against AML and other cancers” (Immatics Biotechnologies GmbH, priority 2016, dated 2024)

Test system: other tumor types (measured tumor samples)
Assay: Presentation of the peptides on additional tumor types (LC-MS of HLA ligands)
Set-up: species or system human
Details: additional tumor types on which the peptide was over-presented on more than 5% of measured tumor samples, or presented on more than 5% with ratio of geometric means tumor vs normal tissues larger than 3

| Substance | Other relevant organs/diseases |
| --- | --- |
| 117 (TILPTILFL; listed as Homo sapiens) [compound 117] | CLL |
| 188 (RLLDFPTLL; listed as Homo sapiens) [compound 188] | SCLC, RCC, CRC, HCC, CLL, NHL, BRCA, OC |
| 160 (RLVPFLVFV; listed as Homo sapiens) [compound 160] | CLL |
| 148 (FLYFEDHGL; listed as Homo sapiens) [compound 148] | SCLC, CLL, NHL, Melanoma, Uterine Cancer |
| 108 (ELEMNSDLKAQL; listed as Homo sapiens) [compound 108] | Uterine Cancer |
| 173 (KMQETLVGL; listed as Homo sapiens) [compound 173] | Brain Cancer, PrC, NHL, BRCA, Melanoma, Esophageal Cancer, Gallbladder Cancer, Bile Duct Cancer |
| 141 (GLLPPLRIPELL; listed as Homo sapiens) [compound 141] | PC, CLL, Urinary bladder cancer, Uterine Cancer, Gallbladder Cancer, Bile Duct Cancer |
| 27 (KANPALYVL; listed as Homo sapiens) [compound 27] | CLL |
| 114 (RLAQEAAQV; listed as Homo sapiens) [compound 114] | RCC, OC, Uterine Cancer |
| 106 (ALLEELERSTL; listed as Homo sapiens) [compound 106] | NHL |
| 43 (AMLDFVSSL; listed as Homo sapiens) [compound 43] | NHL |
| 133 (TVIGTLLFL; listed as Homo sapiens) [compound 133] | NHL |
| 183 (SVIGVSPAV; listed as Homo sapiens) [compound 183] | Brain Cancer, NHL, BRCA, Melanoma |
| 157 (ILTETQQGL; listed as Homo sapiens) [compound 157] | NSCLC, CRC, NHL, BRCA, Melanoma, Urinary bladder cancer |
| 136 (GLSSIETLL; listed as Homo sapiens) [compound 136] | BRCA |
| 13 (ALVPGVTQV; listed as Homo sapiens) [compound 13] | CLL, NHL, Melanoma, Uterine Cancer |
| 84 (GLLGSVLTI; listed as Homo sapiens) [compound 84] | HCC, NHL, BRCA, Urinary bladder cancer, Uterine Cancer |
| 142 (GLSDGYGFTT; listed as Homo sapiens) [compound 142] | CRC, PC, CLL, NHL, BRCA, Esophageal Cancer, OC, Urinary bladder cancer |
| 186 (IILDEAHNV; listed as Homo sapiens) [compound 186] | CLL, NHL, Melanoma, Uterine Cancer |
| 56 (LANPTTSAL; listed as Homo sapiens) [compound 56] | CLL, Gallbladder Cancer, Bile Duct Cancer |
| 6 (GLAEVLLAA; listed as Homo sapiens) [compound 6] | NHL, Uterine Cancer |
| 132 (SLYPVLNFL; listed as Homo sapiens) [compound 132] | Urinary bladder cancer, Uterine Cancer |

| Substance | Other relevant organs/diseases |
| --- | --- |
| 34 (TLSPWSFLI; listed as Homo sapiens) [compound 34] | NSCLC, Uterine Cancer |
| 151 (GLLPFPEVTL; listed as Homo sapiens) [compound 151] | CLL, NHL |
| 152 (GLSNHIAAL; listed as Homo sapiens) [compound 152] | PC, NHL |
| 162 (SLLDFLTFA; listed as Homo sapiens) [compound 162] | NHL |
| 144 (GLFMGLVLV; listed as Homo sapiens) [compound 144] | NHL, BRCA, Melanoma |
| 129 (RMAVLNEQV; listed as Homo sapiens) [compound 129] | SCLC, NHL |
| 49 (IIDDNHAIV; listed as Homo sapiens) [compound 49] | Melanoma |
| 75 (VLAPLGFTL; listed as Homo sapiens) [compound 75] | BRCA |
| 168 (VLLFETALL; listed as Homo sapiens) [compound 168] | CLL, BRCA, Urinary bladder cancer |
| 20 (GLDAFLLEL; listed as Homo sapiens) [compound 20] | NHL, Gallbladder Cancer, Bile Duct Cancer |
| 94 (SLLEFAQYL; listed as Homo sapiens) [compound 94] | NHL |
| 127 (KIISALPQL; listed as Homo sapiens) [compound 127] | CLL, NHL, Esophageal Cancer, OC, Gallbladder Cancer, Bile Duct Cancer |
| 121 (VLQAGQYGV; listed as Homo sapiens) [compound 121] | CLL, NHL, Uterine Cancer |
| 149 (GLAEILVLV; listed as Homo sapiens) [compound 149] | RCC, Brain Cancer, NHL, Melanoma |
| 86 (HLLGDPMANV; listed as Homo sapiens) [compound 86] | SCLC, OC |
| 150 (GLFGVLNEI; listed as Homo sapiens) [compound 150] | CLL, NHL, Uterine Cancer |
| 125 (GLFGYLVFL; listed as Homo sapiens) [compound 125] | SCLC, PC |
| 187 (MLPPPPLTA; listed as Homo sapiens) [compound 187] | SCLC, RCC, Brain Cancer, CLL, NHL, BRCA, Melanoma, Esophageal Cancer, Urinary bladder cancer, Uterine Cancer, Gallbladder Cancer, Bile Duct Cancer |
| 78 (VLSEVECHL; listed as Homo sapiens) [compound 78] | Melanoma |
| 83 (GLGAGVAEAV; listed as Homo sapiens) [compound 83] | CLL |
| 128 (NLSTKTEAV; listed as Homo sapiens) [compound 128] | NHL, OC, Uterine Cancer |
| 161 (SLIGIAIAL; listed as Homo sapiens) [compound 161] | BRCA, Esophageal Cancer, Gallbladder Cancer, Bile Duct Cancer |

| Substance | Other relevant organs/diseases |
| --- | --- |
| 174 (NLTENLQYV; listed as Homo sapiens) [compound 174] | NHL |
| 104 (ALIPETTTL; listed as Homo sapiens) [compound 104] | NHL, Melanoma |
| 167 (VLLDVALGL; listed as Homo sapiens) [compound 167] | RCC, NHL, BRCA, Melanoma |
| 93 (SLINDVLAE; listed as Homo sapiens) [compound 93] | CLL |
| 10 (VILDPVHSV; listed as Homo sapiens) [compound 10] | SCLC, NHL, BRCA, Uterine Cancer |
| 82 (LLPDNFIAA; listed as Homo sapiens) [compound 82] | Brain Cancer, HCC, PC, NHL, BRCA, Melanoma, Esophageal Cancer, Urinary bladder cancer, Uterine Cancer, Gallbladder Cancer, Bile Duct Cancer |
| 137 (ILAPLAWDL; listed as Homo sapiens) [compound 137] | CLL, NHL, Uterine Cancer |
| 28 (LLDQMETPL; listed as Homo sapiens) [compound 28] | Melanoma |
| 135 (GIIDRIFQA; listed as Homo sapiens) [compound 135] | CRC, HCC, BRCA |
| 118 (TLLTVLTQA; listed as Homo sapiens) [compound 118] | CLL, NHL |
| 123 (YTVKINPTL; listed as Homo sapiens) [compound 123] | Gallbladder Cancer, Bile Duct Cancer |
| 140 (YIPDFLTLL; listed as Homo sapiens) [compound 140] | CLL, Melanoma |
| 15 (FIDEEVEDMYL; listed as Homo sapiens) [compound 15] | NHL, Urinary bladder cancer, Gallbladder Cancer, Bile Duct Cancer |
| 120 (VIQDLVVSV; listed as Homo sapiens) [compound 120] | Melanoma, Uterine Cancer |
| 24 (GLVELLNRV; listed as Homo sapiens) [compound 24] | NHL |
| 52 (IVDPVDSTL; listed as Homo sapiens) [compound 52] | Melanoma |
| 113 (NLQSEVEGV; listed as Homo sapiens) [compound 113] | PC, CLL |
| 124 (GLPELVIQL; listed as Homo sapiens) [compound 124] | HCC, CLL, NHL, BRCA, Melanoma, Urinary bladder cancer, Uterine Cancer, Gallbladder Cancer, Bile Duct Cancer |
| 163 (SLMIDLIEV; listed as Homo sapiens) [compound 163] | Melanoma, OC |
| 33 (TIMNQEKLAKL; listed as Homo sapiens) [compound 33] | CRC, NHL, Uterine Cancer |
| 184 (RMTDQEAIQDL; listed as Homo sapiens) [compound 184] | NHL, Melanoma |

Same assay, conditions: breast cancers

| Substance | peptide additionally detected on tumor samples (positive/measured) |
| --- | --- |
| SEQ ID NO.: 10 (VILDPVHSV; listed as Homo sapiens) | 1/18 |

Same assay, conditions: esophageal cancers

| Substance | peptide additionally detected on tumor samples (positive/measured) |
| --- | --- |
| SEQ ID NO.: 1: peptide found in GNA15 (gene looked up) (LLDSAVYYL; listed as Homo sapiens) | 2/17 |

Same assay, conditions: gallbladder and bile duct cancers

| Substance | peptide additionally detected on tumor samples (positive/measured) |
| --- | --- |
| SEQ ID NO.: 1: peptide found in GNA15 (gene looked up) (LLDSAVYYL; listed as Homo sapiens) | 1/17 |

Same assay, conditions: melanomas

| Substance | peptide additionally detected on tumor samples (positive/measured) |
| --- | --- |
| SEQ ID NO.: 1: peptide found in GNA15 (gene looked up) (LLDSAVYYL; listed as Homo sapiens) | 2/18 |

Same assay, conditions: non-hodgkin lymphomas

| Substance | peptide additionally detected on tumor samples (positive/measured) |
| --- | --- |
| SEQ ID NO.: 10 (VILDPVHSV; listed as Homo sapiens) | 2/20 |
| SEQ ID NO.: 7 (LLWGDIMEL; listed as Homo sapiens) | 2/20 |

Same assay, conditions: non-small cell lung cancers

| Substance | peptide additionally detected on tumor samples (positive/measured) |
| --- | --- |
| SEQ ID NO.: 10 (VILDPVHSV; listed as Homo sapiens) | 1/85 |
| SEQ ID NO.: 1: peptide found in GNA15 (gene looked up) (LLDSAVYYL; listed as Homo sapiens) | 4/85 |

Same assay, conditions: ovarian cancers

| Substance | peptide additionally detected on tumor samples (positive/measured) |
| --- | --- |
| SEQ ID NO.: 10 (VILDPVHSV; listed as Homo sapiens) | 1/20 |
| SEQ ID NO.: 1: peptide found in GNA15 (gene looked up) (LLDSAVYYL; listed as Homo sapiens) | 1/20 |

Same assay, conditions: small cell lung cancers

| Substance | peptide additionally detected on tumor samples (positive/measured) |
| --- | --- |
| SEQ ID NO.: 10 (VILDPVHSV; listed as Homo sapiens) | 1/17 |

Same assay, conditions: urinary bladder cancers

| Substance | peptide additionally detected on tumor samples (positive/measured) |
| --- | --- |
| SEQ ID NO.: 1: peptide found in GNA15 (gene looked up) (LLDSAVYYL; listed as Homo sapiens) | 1/15 |

Same assay, conditions: uterine cancers

| Substance | peptide additionally detected on tumor samples (positive/measured) |
| --- | --- |
| SEQ ID NO.: 10 (VILDPVHSV; listed as Homo sapiens) | 1/16 |
| SEQ ID NO.: 1: peptide found in GNA15 (gene looked up) (LLDSAVYYL; listed as Homo sapiens) | 1/16 |
